{"sequences": {"note": "Chains of the proteins cited; added tags and fusions are not shown. Lines headed by an entry give the natural chain unless they say otherwise; changes in a name come on top.", "UniProt O94782": "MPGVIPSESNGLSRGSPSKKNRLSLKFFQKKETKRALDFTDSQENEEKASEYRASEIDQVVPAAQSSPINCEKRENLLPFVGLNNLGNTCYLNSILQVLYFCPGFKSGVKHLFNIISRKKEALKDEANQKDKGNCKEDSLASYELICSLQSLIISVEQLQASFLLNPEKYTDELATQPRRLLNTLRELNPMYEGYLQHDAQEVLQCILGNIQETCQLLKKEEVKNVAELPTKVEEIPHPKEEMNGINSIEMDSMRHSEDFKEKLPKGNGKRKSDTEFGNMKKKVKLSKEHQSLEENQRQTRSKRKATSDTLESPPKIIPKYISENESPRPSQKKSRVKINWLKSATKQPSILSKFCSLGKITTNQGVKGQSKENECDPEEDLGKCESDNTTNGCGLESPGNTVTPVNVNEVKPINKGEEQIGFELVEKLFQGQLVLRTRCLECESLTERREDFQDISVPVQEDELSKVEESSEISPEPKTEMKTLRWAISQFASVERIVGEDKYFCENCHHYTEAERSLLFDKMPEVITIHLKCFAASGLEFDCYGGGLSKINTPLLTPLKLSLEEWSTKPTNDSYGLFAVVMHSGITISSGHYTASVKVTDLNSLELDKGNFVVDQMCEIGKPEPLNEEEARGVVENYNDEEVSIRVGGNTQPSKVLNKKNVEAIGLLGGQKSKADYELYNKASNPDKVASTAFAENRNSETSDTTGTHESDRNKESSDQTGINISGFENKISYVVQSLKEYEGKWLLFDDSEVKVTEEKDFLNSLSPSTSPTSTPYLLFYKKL"}, "source": "PubChem BioAssay AID743255", "about": "(National Center for Advancing Translational Sciences (NCATS), 2014)", "note": "Out of some 390,000 compounds screened, about 910 (0.23%) were called active. Inconclusive results, whose numbers are uncertain, are shown with a selection of clear calls. The call rests on the fitted dose curve; in most records, active means well fitted inhibition curve with a large enough effect; inconclusive means small, poorly fitted or top-dose-only effect; inactive means no such curve, though single readings can be large or run the other way. Where the call is inconclusive, the potency comes from a doubtful curve fit. Potency means the concentration at half of the fitted maximal effect."}
{"target": "Ubiquitin carboxyl-terminal hydrolase 1 (Homo sapiens) (UniProt O94782)", "assay": "Inhibitors of USP1/UAF1: Primary Screen; further: nearly all actives have a fitted effect of over 60% in size", "conditions": "recombinant USP1/UAF1, Ub-Rhodamine cleavage fluorescence; series mostly up to 57.1 µM", "how_it_was_run": "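USP1/UAF1 complex at 1 nM was preincubated with compound for 15 min at room temperature, then Ub-Rho substrate (150nM final) was added. Fluorescence (480/540 nm) was read kinetically, 6 reads every 60 seconds.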"}
{"smiles": "Cc1nc(SCC(=O)OCc2ccccc2)c(C#N)c(-c2ccccc2)c1C(=O)Nc1ccccc1", "Potency": "inconclusive: 22.4 µM [inhibitor, partial curve]"}
{"smiles": "CCN(CCCNC(=O)Cn1ncc2c([nH]c3ccc(C)cc32)c1=O)c1cccc(C)c1", "Potency": "inconclusive: 0.282 µM [inhibitor, full curve, poor fit]"}
{"smiles": "CCCOc1ccc(OCCSc2ncccn2)cc1", "Potency": "inactive"}
{"smiles": "Cc1ccc2nc(NC(=O)C3CCN(C(=O)c4ccc(F)cc4)CC3)sc2c1", "Potency": "inactive"}
{"smiles": "CCn1ccnc1[C@@H]1C[C@H]2CN(Cc3ccccc3OC)C(=O)[C@]23CCCN13", "Potency": "inactive"}
{"smiles": "CCc1nc2ccccc2n1CCC(=O)O", "Potency": "inconclusive: 28.2 µM [inhibitor, single point]"}
{"smiles": "O=C(NCCCCc1ccccc1)c1cccc(NC(=O)C2CCCC2)c1", "Potency": "inconclusive: 50.1 µM [inhibitor, partial curve, poor fit]"}
{"smiles": "CC(=O)CSc1nnc2[nH]c(=O)cc(N)n12", "Potency": "inconclusive: 4.47 µM [inhibitor, partial curve]"}
{"smiles": "Cc1ccc(SCC(=O)OCC(=O)NC2CCCCCCC2)cc1", "Potency": "inconclusive: 89.1 µM [inhibitor, partial curve, poor fit]"}
{"smiles": "CC(C)(C)C(=O)Cn1nc(Cl)nc1Cl", "Potency": "inactive"}
{"smiles": "O=C1[C@H](Cc2ccccc2)NCCCC[C@@H](c2ccco2)N1Cc1ccccc1", "Potency": "inconclusive: 50.1 µM [inhibitor, partial curve, poor fit]"}
{"smiles": "CCc1nnc(NC(=O)CC23CC4CC(CC(Br)(C4)C2)C3)s1", "Potency": "inconclusive: 2.24 µM [inhibitor, full curve, poor fit]"}
{"smiles": "CC1CN(C(=S)Nc2ccccc2)N(c2ccccc2)C1", "note": "(stereo not drawn)", "Potency": "inconclusive: 2.82 µM [inhibitor, full curve]"}
{"smiles": "Cc1cc(N2CCN(c3ccccc3)CC2)nc2ccccc12", "Potency": "inconclusive: 35.5 µM [inhibitor, partial curve]"}
{"smiles": "CCOc1ccc(CCNS(=O)(=O)c2cc(Br)cc3c2N(C(C)=O)CC3)cc1OCC", "Potency": "inconclusive: 50.1 µM [inhibitor, partial curve, poor fit]"}
{"smiles": "COc1ccc(C(=O)Nc2cccc(N(C)S(C)(=O)=O)c2)cc1OC", "Potency": "inconclusive: 0.631 µM [inhibitor, full curve, poor fit]"}
{"smiles": "CCOC(=O)c1c(NC(=O)c2ccc(S(=O)(=O)N(CC(C)C)CC(C)C)cc2)sc2c1CCN(C(=O)OCC)C2", "Potency": "inactive"}
{"smiles": "CCOC(=O)C(=O)Cc1cccnn1", "Potency": "inconclusive: 28.2 µM [inhibitor, partial curve]"}
{"smiles": "CCC(=O)Nc1cccc(C2=NOC3(C2)C[C@@H](C(N)=O)N(C(=O)C(c2ccccc2)c2ccccc2)C3)c1", "note": "(stereo partly drawn)", "Potency": "inconclusive: 11.2 µM [inhibitor, partial curve, poor fit]"}
{"smiles": "O=C(O)C(c1ccccc1)N1C(=O)/C(=C\\c2ccc(O)c(O)c2)SC1=S", "note": "(stereo not drawn)", "Potency": "inconclusive: 35.5 µM [inhibitor, partial curve]"}
{"smiles": "COc1ccc(C(=O)CSc2ccc(-c3ccco3)nn2)cc1", "Potency": "inactive"}
{"smiles": "COc1cc(OC)c(Nc2nc3ccc(C(=O)c4ccccc4)cc3n3c(C)nnc23)cc1Cl", "Potency": "inactive"}
{"smiles": "O=[N+]([O-])c1ccc(-c2nc3ccc([N+](=O)[O-])cc3[nH]2)cc1", "Potency": "inactive"}
{"smiles": "CCN(CC)c1ccc(C(=C2C=CC(=[N+](CC)CC)C=C2)c2ccc(S(=O)(=O)O)cc2S(=O)(=O)[O-])cc1", "Potency": "inconclusive: 44.7 µM [inhibitor, partial curve, poor fit]"}
{"smiles": "CCOC(=O)C1=C(C)N=C2SCCC(=O)N2C1c1ccc(OCc2ccccc2)cc1", "note": "(stereo not drawn)", "Potency": "inconclusive: 1.78 µM [inhibitor, full curve]"}
{"smiles": "Cc1nc(C)c(-c2ccc(SCC(=O)Nc3ccc(F)cc3F)nn2)s1", "Potency": "inactive"}
{"smiles": "CCc1ccc(CN(Cc2cn[nH]c2-c2ccc(OC)cc2)C(=O)Nc2cc(Cl)ccc2OC)cc1", "Potency": "inconclusive: 2.51 µM [inhibitor, partial curve]"}
{"smiles": "CCOC(=O)CSCC(=O)N1CCC(Cc2ccccc2)CC1", "Potency": "inconclusive: 50.1 µM [inhibitor, partial curve, poor fit]"}
{"smiles": "O=C(O)/C=C/c1cnc[nH]1", "Potency": "inactive"}
{"smiles": "CCOC(=O)c1cccc(NC(=O)CCn2c(-c3ccc(F)cc3)cc(C(=O)OCC)c2C)c1", "Potency": "inconclusive: 50.1 µM [inhibitor, partial curve, poor fit]"}
{"smiles": "CN(C)c1ccc(/C=N/NC(=O)c2ccc3nc[nH]c3c2)cc1", "Potency": "inactive"}
{"smiles": "Cc1ccc(NC(=O)NCCCN2CCCC2=O)cc1Cl", "Potency": "inactive"}
{"smiles": "Oc1ccc(N2CCN(C(c3cccnc3)c3nnnn3Cc3ccccc3)CC2)cc1", "note": "(stereo not drawn)", "Potency": "inconclusive: 35.5 µM [inhibitor, single point]"}
{"smiles": "CCCS(=O)(=O)N1CC(=O)N(c2ccc(Cl)cc2C)C(C)(C(=O)NC2CCCC2)C1", "note": "(stereo not drawn)", "Potency": "inconclusive: 14.1 µM [inhibitor, partial curve, poor fit]"}
{"smiles": "O=c1c2ccccc2ncn1CCCCOc1ccc(Br)cc1", "Potency": "inconclusive: 7.94 µM [inhibitor, partial curve]"}
{"smiles": "Cc1ccc(C(=O)OCC(=O)N(C)c2ccccc2)cc1C", "Potency": "inactive"}
{"smiles": "NC(=O)c1cc2cc(Cc3ccccc3Cl)ccc2oc1=O", "Potency": "inconclusive: 31.6 µM [inhibitor, single point]"}
{"smiles": "CC(C)OCCCNC1=C(Cl)C(=O)c2ccccc2C1=O", "Potency": "inconclusive: 44.7 µM [inhibitor, partial curve, poor fit]"}
{"smiles": "CCN(CC)C(=O)c1sc(NC(=O)c2c(OC)cccc2OC)c(C#N)c1C", "Potency": "inactive"}
{"smiles": "CC(=O)Nc1nnc(CCS(=O)(=O)c2ccc(Cl)cc2)s1", "Potency": "inactive"}
{"smiles": "CCOc1cc([N+](=O)[O-])cc2c1C(=O)Nc1ccccc1O2", "Potency": "inconclusive: 31.6 µM [inhibitor, partial curve, poor fit]"}
{"smiles": "CCOC(=O)C1CCN(C(=O)c2ccc(-n3ccc4ccccc43)s2)CC1", "Potency": "inconclusive: 0.355 µM [inhibitor, partial curve, poor fit]"}
{"smiles": "COc1cc2ccccc2cc1C(=O)Nc1ccc(Cc2ccncc2)cc1", "Potency": "inconclusive: 28.2 µM [inhibitor, partial curve]"}
